Source: article PMC5471034
These are yes or no findings as the source states them, for the method shown. In cells and extracts the contact can be indirect. Some entries that bind do so weakly or less than the wild type.

Sequences of proteins named here, by UniProt entry; tags and fusion partners are left off.
UniProt P78527: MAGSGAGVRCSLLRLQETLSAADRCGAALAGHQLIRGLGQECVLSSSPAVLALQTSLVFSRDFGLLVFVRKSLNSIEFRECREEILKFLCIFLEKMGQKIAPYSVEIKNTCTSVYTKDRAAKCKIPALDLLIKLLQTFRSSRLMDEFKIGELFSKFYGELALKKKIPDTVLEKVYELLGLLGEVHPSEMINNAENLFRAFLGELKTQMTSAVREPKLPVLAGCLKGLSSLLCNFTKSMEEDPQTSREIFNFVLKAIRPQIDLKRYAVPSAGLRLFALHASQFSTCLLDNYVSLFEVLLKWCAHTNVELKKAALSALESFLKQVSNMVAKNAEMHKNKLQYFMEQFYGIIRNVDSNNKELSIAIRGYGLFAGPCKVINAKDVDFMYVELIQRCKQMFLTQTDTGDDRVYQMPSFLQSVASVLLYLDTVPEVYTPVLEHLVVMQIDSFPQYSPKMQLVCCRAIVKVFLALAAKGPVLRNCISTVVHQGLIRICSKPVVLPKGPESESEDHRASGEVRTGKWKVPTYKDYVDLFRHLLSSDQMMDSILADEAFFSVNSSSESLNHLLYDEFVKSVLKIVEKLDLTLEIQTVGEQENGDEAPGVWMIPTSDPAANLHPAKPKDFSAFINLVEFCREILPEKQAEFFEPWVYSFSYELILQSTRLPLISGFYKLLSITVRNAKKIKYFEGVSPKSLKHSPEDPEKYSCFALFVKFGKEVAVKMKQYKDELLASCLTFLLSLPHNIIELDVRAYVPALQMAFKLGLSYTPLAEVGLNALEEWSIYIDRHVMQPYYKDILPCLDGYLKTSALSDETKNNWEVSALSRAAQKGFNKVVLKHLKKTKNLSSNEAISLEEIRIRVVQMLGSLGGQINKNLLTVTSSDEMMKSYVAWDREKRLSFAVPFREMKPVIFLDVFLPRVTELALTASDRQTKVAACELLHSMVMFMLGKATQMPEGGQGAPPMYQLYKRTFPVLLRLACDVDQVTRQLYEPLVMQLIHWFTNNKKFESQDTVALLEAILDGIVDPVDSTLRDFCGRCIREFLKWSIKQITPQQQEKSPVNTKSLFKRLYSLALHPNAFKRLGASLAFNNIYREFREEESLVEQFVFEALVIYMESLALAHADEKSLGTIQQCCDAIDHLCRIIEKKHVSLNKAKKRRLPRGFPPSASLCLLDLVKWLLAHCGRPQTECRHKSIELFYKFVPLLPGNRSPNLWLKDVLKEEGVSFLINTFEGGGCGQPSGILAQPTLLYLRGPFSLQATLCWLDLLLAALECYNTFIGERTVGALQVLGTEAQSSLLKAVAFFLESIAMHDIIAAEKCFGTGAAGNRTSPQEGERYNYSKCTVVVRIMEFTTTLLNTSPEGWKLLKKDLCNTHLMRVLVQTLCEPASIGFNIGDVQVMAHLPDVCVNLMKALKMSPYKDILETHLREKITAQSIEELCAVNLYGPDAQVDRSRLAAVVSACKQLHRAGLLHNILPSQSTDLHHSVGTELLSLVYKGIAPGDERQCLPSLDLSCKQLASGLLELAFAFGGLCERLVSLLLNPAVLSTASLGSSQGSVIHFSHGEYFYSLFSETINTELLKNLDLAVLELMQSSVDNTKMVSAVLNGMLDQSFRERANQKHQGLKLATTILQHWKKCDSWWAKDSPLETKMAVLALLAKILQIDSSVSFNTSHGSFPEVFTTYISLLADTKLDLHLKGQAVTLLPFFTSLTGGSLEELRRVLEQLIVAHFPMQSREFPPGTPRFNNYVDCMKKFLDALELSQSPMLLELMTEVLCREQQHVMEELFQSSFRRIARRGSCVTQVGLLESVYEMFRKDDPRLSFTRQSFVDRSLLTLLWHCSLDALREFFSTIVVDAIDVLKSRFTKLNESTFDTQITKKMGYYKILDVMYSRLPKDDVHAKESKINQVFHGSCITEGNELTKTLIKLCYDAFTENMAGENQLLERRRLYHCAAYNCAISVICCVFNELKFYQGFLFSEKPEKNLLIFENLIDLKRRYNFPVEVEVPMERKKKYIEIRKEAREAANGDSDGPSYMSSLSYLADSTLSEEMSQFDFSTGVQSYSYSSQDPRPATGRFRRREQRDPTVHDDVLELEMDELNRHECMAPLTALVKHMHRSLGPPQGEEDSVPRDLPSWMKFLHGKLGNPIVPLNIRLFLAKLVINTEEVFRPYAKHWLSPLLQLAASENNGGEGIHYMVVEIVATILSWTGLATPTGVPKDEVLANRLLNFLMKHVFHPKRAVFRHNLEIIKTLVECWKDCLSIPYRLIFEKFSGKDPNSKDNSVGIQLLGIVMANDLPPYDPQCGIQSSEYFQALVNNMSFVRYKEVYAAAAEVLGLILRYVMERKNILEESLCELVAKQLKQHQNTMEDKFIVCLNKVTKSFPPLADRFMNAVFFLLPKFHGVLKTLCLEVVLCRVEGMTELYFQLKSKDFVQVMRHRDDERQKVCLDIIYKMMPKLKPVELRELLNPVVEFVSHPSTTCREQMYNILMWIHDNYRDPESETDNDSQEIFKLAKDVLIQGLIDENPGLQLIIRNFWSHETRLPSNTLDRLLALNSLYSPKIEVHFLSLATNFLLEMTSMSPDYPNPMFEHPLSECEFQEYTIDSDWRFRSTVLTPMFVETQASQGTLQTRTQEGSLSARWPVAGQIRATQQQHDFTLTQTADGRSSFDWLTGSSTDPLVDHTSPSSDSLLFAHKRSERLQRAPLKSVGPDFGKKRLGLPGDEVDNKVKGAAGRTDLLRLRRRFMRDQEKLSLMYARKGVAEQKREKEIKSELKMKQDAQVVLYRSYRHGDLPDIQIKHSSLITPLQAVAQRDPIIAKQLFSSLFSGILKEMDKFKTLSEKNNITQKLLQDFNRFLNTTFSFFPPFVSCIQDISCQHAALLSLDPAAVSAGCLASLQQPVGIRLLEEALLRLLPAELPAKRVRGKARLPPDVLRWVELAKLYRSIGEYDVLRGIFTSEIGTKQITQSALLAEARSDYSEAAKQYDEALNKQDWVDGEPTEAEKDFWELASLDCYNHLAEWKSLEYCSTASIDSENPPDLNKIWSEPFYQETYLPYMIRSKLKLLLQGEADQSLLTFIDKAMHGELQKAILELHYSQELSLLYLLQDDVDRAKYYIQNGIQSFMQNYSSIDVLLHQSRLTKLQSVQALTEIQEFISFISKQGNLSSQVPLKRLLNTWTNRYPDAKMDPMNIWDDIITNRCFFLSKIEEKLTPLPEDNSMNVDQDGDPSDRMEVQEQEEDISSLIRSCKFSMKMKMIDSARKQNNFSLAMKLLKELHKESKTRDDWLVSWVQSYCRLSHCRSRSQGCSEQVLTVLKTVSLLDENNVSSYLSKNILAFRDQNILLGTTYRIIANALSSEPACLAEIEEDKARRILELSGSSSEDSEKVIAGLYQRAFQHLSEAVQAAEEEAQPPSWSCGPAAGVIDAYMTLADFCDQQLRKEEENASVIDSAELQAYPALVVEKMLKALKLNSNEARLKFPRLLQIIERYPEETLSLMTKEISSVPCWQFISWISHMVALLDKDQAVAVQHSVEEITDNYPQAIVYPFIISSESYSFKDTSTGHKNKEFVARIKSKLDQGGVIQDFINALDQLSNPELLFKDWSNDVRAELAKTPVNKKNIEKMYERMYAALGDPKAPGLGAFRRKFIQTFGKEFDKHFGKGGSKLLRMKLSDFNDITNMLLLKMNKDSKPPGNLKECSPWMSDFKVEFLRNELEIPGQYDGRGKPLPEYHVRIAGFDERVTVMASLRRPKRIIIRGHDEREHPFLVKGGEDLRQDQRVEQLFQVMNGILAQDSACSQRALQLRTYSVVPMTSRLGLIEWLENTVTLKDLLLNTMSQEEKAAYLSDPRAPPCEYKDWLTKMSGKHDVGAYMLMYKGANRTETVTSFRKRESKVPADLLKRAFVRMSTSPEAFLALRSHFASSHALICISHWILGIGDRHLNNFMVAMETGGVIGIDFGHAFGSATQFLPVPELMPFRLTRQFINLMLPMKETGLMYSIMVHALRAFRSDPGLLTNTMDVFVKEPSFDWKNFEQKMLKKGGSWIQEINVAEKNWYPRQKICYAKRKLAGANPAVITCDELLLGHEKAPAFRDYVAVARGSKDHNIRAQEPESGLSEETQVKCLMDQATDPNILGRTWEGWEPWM
UniProt P08754: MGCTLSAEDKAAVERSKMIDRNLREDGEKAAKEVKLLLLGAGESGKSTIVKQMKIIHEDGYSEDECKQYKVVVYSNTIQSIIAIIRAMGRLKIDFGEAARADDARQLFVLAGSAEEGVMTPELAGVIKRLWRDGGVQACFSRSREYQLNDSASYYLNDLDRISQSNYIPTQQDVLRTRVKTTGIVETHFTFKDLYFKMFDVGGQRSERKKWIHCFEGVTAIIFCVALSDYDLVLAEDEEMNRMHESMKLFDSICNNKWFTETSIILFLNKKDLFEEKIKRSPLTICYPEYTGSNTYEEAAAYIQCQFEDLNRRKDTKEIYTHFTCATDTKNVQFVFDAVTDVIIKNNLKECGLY

Biological target: DNA-dependent protein kinase catalytic subunit (DNA-PKcs) (human (endogenous in A172)) (UniProt P78527)
Assay: co-IP; 500 μg nuclei-localized protein lysates of A172 cells (irradiated 5 Gy, 2 and 4 hours, or mock), pre-cleared with protein A/G beads; anti-DNA-PKcs antibody overnight, protein A/G beads 2 hours at 4°C; Gαi3 detected by Western blotting

binding: binds
Substance: Gαi3 (G protein α inhibitory subunit 3) (from UniProt P08754 1-354)
